{"sequences": {"note": "By UniProt entry, the sequences of proteins in these tests, tags left out. Residues count along the entry.", "UniProt P41439, residues 23-245": "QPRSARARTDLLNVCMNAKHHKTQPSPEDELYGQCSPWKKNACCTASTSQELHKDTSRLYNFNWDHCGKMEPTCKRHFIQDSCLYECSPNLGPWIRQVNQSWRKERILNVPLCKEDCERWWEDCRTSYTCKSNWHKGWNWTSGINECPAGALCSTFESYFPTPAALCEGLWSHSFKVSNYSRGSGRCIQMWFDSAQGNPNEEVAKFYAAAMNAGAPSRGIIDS", "UniProt Q16769, residues 29-361": "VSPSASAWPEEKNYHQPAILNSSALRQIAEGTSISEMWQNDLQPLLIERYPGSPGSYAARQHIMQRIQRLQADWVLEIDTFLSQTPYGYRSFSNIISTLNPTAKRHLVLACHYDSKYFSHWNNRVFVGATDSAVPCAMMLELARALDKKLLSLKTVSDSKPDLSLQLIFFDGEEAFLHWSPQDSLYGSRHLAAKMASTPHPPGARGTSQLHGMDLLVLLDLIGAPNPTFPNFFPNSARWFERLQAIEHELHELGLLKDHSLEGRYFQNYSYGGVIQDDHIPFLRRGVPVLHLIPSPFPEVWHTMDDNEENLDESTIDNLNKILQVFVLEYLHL", "UniProt Q92743, residues 23-480": "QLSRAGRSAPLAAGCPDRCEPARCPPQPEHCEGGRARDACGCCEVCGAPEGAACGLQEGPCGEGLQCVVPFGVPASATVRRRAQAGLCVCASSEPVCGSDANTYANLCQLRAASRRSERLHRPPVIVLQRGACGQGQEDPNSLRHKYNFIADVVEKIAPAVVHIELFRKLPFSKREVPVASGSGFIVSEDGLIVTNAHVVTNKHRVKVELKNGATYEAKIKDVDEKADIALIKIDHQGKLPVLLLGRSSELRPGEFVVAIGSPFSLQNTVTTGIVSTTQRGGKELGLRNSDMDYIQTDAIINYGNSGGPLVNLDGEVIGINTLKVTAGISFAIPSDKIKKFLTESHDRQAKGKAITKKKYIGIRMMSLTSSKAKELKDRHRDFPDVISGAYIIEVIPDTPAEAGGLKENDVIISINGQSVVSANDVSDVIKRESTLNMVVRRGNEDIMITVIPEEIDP"}, "source": "paper doi:10.1101/2022.07.21.500829", "note": "No constants are given. Whether binding was seen depends on the method and setting. Binding seen in cells or lysates may run through a third protein. These calls come from enrichment with a bait or labelling near it, and not all partners need be listed."}
{"molecular_target": "folate receptor gamma (FOLR3) with FLAG tag (human) (UniProt P41439)", "assay": "affinity purification with mass spectrometry"}
{"molecule": "glutaminyl peptide cyclotransferase (from UniProt Q16769 29-361) (enzyme)", "binding": "binds"}
{"molecule": "serine protease HTRA1 (from UniProt Q92743 23-480) (enzyme)", "binding": "binds"}
{"molecule": "midkine (protein, UniProt P21741 21-143) VAKKKDKVKKGGPGSECAEWAWGPCTPSSKDCGVGFREGTCGAQTQRIRCRVPCNWKKEFGADCKYKFENWGACDGGTGTKVRQGTLKKARYNAQCQETIRVTKPCTPKTKAKAKAKKGKGKD", "binding": "binds"}
